# From PubChem BioAssay AID743255 (National Center for Advancing Translational Sciences (NCATS), 2014)
# Chains of the proteins cited; added tags and fusions are not shown. Lines headed by an entry give the natural chain unless they say otherwise; changes in a name come on top.
# UniProt O94782: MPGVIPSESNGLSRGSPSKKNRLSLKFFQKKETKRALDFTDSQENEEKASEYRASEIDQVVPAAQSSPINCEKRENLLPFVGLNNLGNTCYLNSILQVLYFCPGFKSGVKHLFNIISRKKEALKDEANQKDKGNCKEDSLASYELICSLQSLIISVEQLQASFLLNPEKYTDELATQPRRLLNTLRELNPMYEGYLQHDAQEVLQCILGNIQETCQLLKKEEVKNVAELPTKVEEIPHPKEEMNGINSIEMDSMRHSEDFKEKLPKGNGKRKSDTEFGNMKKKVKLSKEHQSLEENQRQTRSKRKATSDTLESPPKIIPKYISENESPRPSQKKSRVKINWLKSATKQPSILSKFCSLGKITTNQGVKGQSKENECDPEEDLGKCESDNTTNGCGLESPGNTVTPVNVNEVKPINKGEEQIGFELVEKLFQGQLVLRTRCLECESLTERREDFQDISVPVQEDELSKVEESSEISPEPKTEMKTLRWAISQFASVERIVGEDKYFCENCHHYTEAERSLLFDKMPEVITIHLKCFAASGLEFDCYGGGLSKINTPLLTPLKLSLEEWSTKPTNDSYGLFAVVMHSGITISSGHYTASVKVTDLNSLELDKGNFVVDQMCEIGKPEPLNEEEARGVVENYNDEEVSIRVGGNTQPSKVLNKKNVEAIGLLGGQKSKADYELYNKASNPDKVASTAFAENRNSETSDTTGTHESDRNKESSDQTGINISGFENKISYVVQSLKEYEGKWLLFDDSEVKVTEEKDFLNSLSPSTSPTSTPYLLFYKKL
# The whole screen tested about 390,000 compounds, of which about 910 (0.23%) were called active. The shares of active, inactive and inconclusive entries below differ from those in the screen. Calls follow the shape of the dose curve; as a rule, active = well fitted inhibition curve with a large enough effect; inconclusive = small, poorly fitted or top-dose-only effect; inactive = no such curve, though single readings can be large or run the other way. Potencies beside an inconclusive call are fits to weak or partial responses and may not hold up.
# Target: Ubiquitin carboxyl-terminal hydrolase 1 (Homo sapiens) (UniProt O94782)
# Assay: Inhibitors of USP1/UAF1: Primary Screen; also: nearly all actives have a fitted effect of over 60% in size
# Conditions: recombinant USP1/UAF1, Ub-Rhodamine cleavage fluorescence; activity change, negative = inhibition: at 57.1 µM (top of the series)
# In short: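 1 nM enzyme complex + cpd, 15 min RT; start with Ub-Rho 150nM final; kinetic fluorescence ex 480/em 540, 6 reads q60 s. Buffer 50mM HEPES pH 7.8, 0.5mM EDTA, 0.1 mg/ml BSA, 1mM TCEP, 0.01% Tween-20.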
# % is scaled to controls: 0 for no effect and ±100 for the full control effect; potency is read from the fitted curve at half-maximal effect.
SMILES,Potency,"activity change, negative = inhibition"
CC(C)CCn1c(Oc2ccccc2F)nc2c1c(=O)n(C)c(=O)n2C,"inconclusive: 5.01 µM [inhibitor, full curve]",
CS(=O)(=O)c1cccc(C(=O)OCC(=O)NC(=O)Nc2ccccc2F)c1,"inconclusive: 50.1 µM [inhibitor, partial curve, poor fit]",
CCCCN(CC)C(=O)CCNS(=O)(=O)c1ccc2c(c1)c(=O)n(C)c(=O)n2C,"inconclusive: 1 µM [inhibitor, full curve]",
CCCCCCNC(=O)OC12CN(C(=O)OC(C)C)N(C(=O)OC(C)C)CC1(O)CN(S(=O)(=O)c1ccc(C)cc1)C2 (centres undefined),"inconclusive: 56.2 µM [inhibitor, partial curve, poor fit]",
CCCn1cnc2cc(NCc3ccccc3OCC)ccc21,"inconclusive: 8.91 µM [inhibitor, partial curve, poor fit]",
COC(=O)c1ccc(C(=O)OC)c(NC(=O)c2cc3nc(-c4ccc(C)cc4)cc(C(F)(F)F)n3n2)c1,"inconclusive: 0.708 µM [inhibitor, full curve, poor fit]",
COc1cc(C(=O)OCC(=O)Nc2ccc(OC(F)F)cc2)cc(OC)c1OC,"inconclusive: 5.01 µM [inhibitor, partial curve, poor fit]",
CCN(CC)S(=O)(=O)c1ccc(/C=C/C(=O)OCC(=O)NCc2cccs2)cc1,,inactive: -11.2%
Cc1ccc(Cl)cc1N1CCN(C(=O)c2ccc(CS(=O)c3ccccc3)o2)CC1 (centres undefined),,inactive: -13.5%
CSc1nc(Nc2ccc(Cl)cc2)c(C#N)c(=O)[nH]1,,inactive: -10.6%
CCCNC(=O)CCCN1C(=O)CCn2nc(-c3cccn3C)cc21,"inconclusive: 11.2 µM [inhibitor, partial curve, poor fit]",
COc1ccc(-c2cnc(OC(C)(C)C)nc2OC(C)(C)C)cc1OC,"inconclusive: 50.1 µM [inhibitor, partial curve, poor fit]",
C[C@H]1CN([C@@H](C)CO)C(=O)c2cc(-c3cccc(C(=O)N(C)C)c3)cnc2O[C@H]1CN(C)C(=O)Cc1ccccn1,"inconclusive: 0.631 µM [inhibitor, full curve, poor fit]",
O=C(NC1CCN(Cc2ccc(Cl)c(Cl)c2)CC1)c1ccccc1,,inactive: -23.8%
CC1CN(c2ncnc3c2oc2ccccc23)CC(C)O1 (centres undefined),"inconclusive: 10 µM [inhibitor, partial curve]",
CC1CCN(S(=O)(=O)c2ccc3nc(NCc4ccccc4)ccc3c2)CC1,"inconclusive: 0.562 µM [inhibitor, full curve, poor fit]",
COC(CNC(=O)c1ccc2c(c1)nc(C)n2-c1cccc(C)c1)OC,,inactive: -15.6%
CCOC(=O)C(C)n1cnc2scc(-c3ccc(C)c(C)c3)c2c1=O (centres undefined),"inconclusive: 0.355 µM [inhibitor, full curve, poor fit]",
O=C(Nc1ccc(Cl)cc1Cl)NC1CCN(S(=O)(=O)c2ccc(F)cc2)CC1,,inactive: -19.4%
CC1CCCC(NC(=O)CSc2ccc(F)cc2)C1C (centres undefined),,inactive: -19.1%
COc1ccccc1NC(=S)NCc1ccc(S(N)(=O)=O)cc1,,inactive: -0.95%
COC(=O)CCC(=O)OC1(C)C(=O)C2=CN(c3ccc(OC)cc3)C(c3ccc(OC)cc3)=CC2=C(Br)C1=O (centres undefined),"inconclusive: 35.5 µM [inhibitor, partial curve, poor fit]",
CCOC(=O)C1=C(C)NC(C)=C(C(=O)OCC)C1c1ccc(O)cc1,,inactive: -18.2%

# Sorted by SMILES length (largest number first): part of the list above
SMILES,Potency,"activity change, negative = inhibition"
CCCCCCNC(=O)OC12CN(C(=O)OC(C)C)N(C(=O)OC(C)C)CC1(O)CN(S(=O)(=O)c1ccc(C)cc1)C2 (centres undefined),"inconclusive: 56.2 µM [inhibitor, partial curve, poor fit]",
CCOC(=O)C(C)n1cnc2scc(-c3ccc(C)c(C)c3)c2c1=O (centres undefined),"inconclusive: 0.355 µM [inhibitor, full curve, poor fit]",
CC1CCCC(NC(=O)CSc2ccc(F)cc2)C1C (centres undefined),,inactive: -19.1%

# (further entries)

SMILES,Potency,"activity change, negative = inhibition"
COc1ccccc1OCC(=O)/C=C1/N(C)c2ccccc2C1(C)C,,inactive: -19.5%
O=C(/C=C/c1ccccc1)CC(=O)c1ccccc1,,inactive: -3.5%
Nc1ccc2nc(CN3CCOCC3)[nH]c2c1,"inconclusive: 44.7 µM [inhibitor, partial curve, poor fit]",
COc1cccc(CNC(=O)C2CCN(S(=O)(=O)c3c(C)nn(C)c3C)CC2)c1,"inconclusive: 0.708 µM [inhibitor, full curve]",
CCOc1cc(C(=O)NCCc2csc(-c3ccc(C)cc3)n2)cc(OCC)c1OCC,,inactive: -26.4%
COc1ccc2[nH]c(C)c(CN3CCC(C)CC3)c(=O)c2c1,"inconclusive: 0.355 µM [inhibitor, full curve, poor fit]",
CCC(C)(C)NC(=O)Cn1c(=O)ccc2cc(S(=O)(=O)N3CCC(C)CC3)ccc21,,inactive: -3.51%
CCCn1cnc2c(SCc3ccccc3)nc(N)nc21,"inconclusive: 11.2 µM [inhibitor, full curve, poor fit]",
CC1CCN(c2nc3c(c(=O)n(C)c(=O)n3C)n2Cc2ccccc2)CC1,"inconclusive: 35.5 µM [inhibitor, single point]",
O=C(Cc1ccc(NC(=O)C2CCN(C(=O)C3CCCC3)CC2)cc1)Nc1cccc(C(=O)N2CCCCC2)c1,"inconclusive: 89.1 µM [inhibitor, partial curve, poor fit]",
CC(C)CC[n+]1ccn(C2=C([O-])c3ccccc3C(=O)/C2=N\S(=O)(=O)c2ccccc2)c1,"inconclusive: 44.7 µM [inhibitor, partial curve, poor fit]",
CCc1nc(N2CCN(C(=O)CCl)CC2)c2c3c(sc2n1)CC(C)CC3 (centres undefined),"inconclusive: 44.7 µM [inhibitor, partial curve]",
CCCCn1c(NC(=O)c2ccc(Br)o2)c(S(=O)(=O)c2ccccc2)c2nc3ccccc3nc21,active: 28.2 µM,
COc1ccc(-c2nc(N=Nc3ccc(O)cc3)n[nH]2)cc1,,inactive: -14.5%
COc1ccc(S(=O)(=O)N2CCN(c3ccc4nnc(-c5ccccc5)n4n3)CC2)cc1,"inconclusive: 70.8 µM [inhibitor, partial curve, poor fit]",
Cc1ccc2[nH]c(=O)c(CN(Cc3ccco3)C(=O)N3CCOCC3)cc2c1,"inconclusive: 39.8 µM [inhibitor, single point]",
Cc1c(NC(=O)Nc2ccc(F)c(Cl)c2)c(=O)n(-c2ccccc2)n1C,,inactive: -6.4%
CCc1ccc(C2c3c(-c4cc(C)ccc4O)n[nH]c3C(=O)N2Cc2cccnc2)cc1 (centres undefined),"inconclusive: 25.1 µM [inhibitor, partial curve]",
COc1cccc([C@@H]2CC=C(C(=O)O)[C@H](c3ccc(C)cc3)N2S(=O)(=O)c2ccc(C)cc2)c1,"inconclusive: 0.126 µM [inhibitor, full curve, poor fit]",
O=S(=O)(c1ccccc1)N1N=C(c2ccc(Br)cc2)CC1c1ccco1 (centres undefined),,inactive: -16.6%
Cc1cc(C(=O)N/N=C/c2ccc(N(C)C)o2)cs1,"inconclusive: 44.7 µM [inhibitor, partial curve]",
CCCCC(=O)Oc1c(S(=O)(=O)c2ccccc2)c(C)nn1C(C)(C)C,,inactive: -9.8%
COc1ccccc1N1CCN(C(=S)Nc2ccc(S(=O)(=O)N3CCOCC3)cc2)CC1,,inactive: -16.3%

SMILES,Potency,"activity change, negative = inhibition"
O=C(O)c1cc([N+](=O)[O-])ccc1NCCCc1ccccc1,,inactive: 10.3%
C=CCn1c(/N=C/c2ccc(N(C)C)cc2)nc2ccccc21,"inconclusive: 28.2 µM [inhibitor, partial curve]",
CCN1CCN(c2cc(C)c3cc(NC(=O)c4cncc(Br)c4)ccc3n2)CC1,,inactive: 3.91%
CCOc1ccccc1NC(=O)CN1c2ccccc2S(=O)(=O)c2ccccc21,,inactive: -1.73%
COc1cccc(CNC(=O)c2ccc(NC3=NC4CS(=O)(=O)CC4S3)cc2)c1 (centres undefined),"inconclusive: 89.1 µM [inhibitor, partial curve, poor fit]",
O=C(O)C1CCN(C(=O)c2ccccc2N2C(=O)[C@@H]3Cc4c([nH]c5ccccc45)C(c4cccc(Cl)c4)N3C2=O)CC1 (some centres undefined),"inconclusive: 0.251 µM [inhibitor, full curve, poor fit]",
Cc1cc(C)c(NC(=O)CCCN2CCCC2)c(C)c1,"inconclusive: 31.6 µM [inhibitor, partial curve]",
O=C(Nc1ccccc1F)c1ccc(-c2ccccc2)s1,,inactive: -20.5%
CC(C)c1nc2c(c(=O)c3ccccc3n2C)c(=O)n1CCc1ccccc1,"inconclusive: 39.8 µM [inhibitor, single point]",
Cn1c(C(=O)NCCCN2CCCCCC2)cc2c(=O)n(C)c3ccccc3c21,"inconclusive: 17.8 µM [inhibitor, partial curve]",
CCN1CCN(C(c2ccccc2)c2c(O)cc(C)n(Cc3ccco3)c2=O)CC1 (centres undefined),"inconclusive: 0.1 µM [inhibitor, full curve, poor fit]",
N/C(Cc1ccc(Cl)c(Cl)c1)=N\OC(=O)c1ccc(Br)o1,"inconclusive: 56.2 µM [inhibitor, partial curve, poor fit]",
O=C1CCCC2=C1C(c1ccncc1)n1c(nc3ccccc31)N2 (centres undefined),,inactive: -15.7%
CC(=O)Nc1ccc(CN(C)CC2CCCN(CCc3cccc(C(F)(F)F)c3)C2)cc1 (centres undefined),,inactive: -13.4%
Cc1cc(/C=N/NC(=O)c2cccc(N(C)C)c2)c(C)n1-c1cc(C(=O)O)cc(C(=O)O)c1,,inactive: 2.75%
NNc1nc(Nc2ccc([N+](=O)[O-])cc2)nc(N2CCCCCC2)n1,,inactive: -15.7%
COc1ccccc1CNc1ncnc2c1c(-c1ccccc1)cn2-c1cccc(C)c1,,inactive: 1.8%
CC1CCN(CCCNC(=O)c2cc3c(Cl)nc4ccccc4c3s2)CC1,,inactive: -23.8%
CC(SC1=Nc2ccccc2C2CC=NN12)C(=O)NC1(C#N)CCCCC1 (centres undefined),,inactive: -24%
O=C(CN1CCCC1)Nc1ccccc1Sc1ccccc1,,inactive: -20.6%
Cn1cc([N+](=O)[O-])c(C(=O)Nc2cc(Oc3cccnc3)cc([N+](=O)[O-])c2)n1,,inactive: -19.4%
CCCN(CC(=O)Nc1ccccc1C)C(=O)C1CCN(S(=O)(=O)c2ccc(C)c(C)c2)CC1,"inconclusive: 0.251 µM [inhibitor, full curve, poor fit]",
CCN(c1ccc(NC(=O)CSc2ccc3c(c2)OCCO3)cc1)C(C)C,,inactive: -3.26%
